Laboratory results as given in the supplement of paper PMC10849652.
The other results are listed elsewhere or left out. Residues, ends and D or L forms follow the SMILES beside them. *: point of attachment. Cbz = O=C(OCc1ccccc1)*

Amino acid sequences for entries named in this document (tags omitted). A change or cut given only in a name is not applied to a line headed by its entry.
UniProt P46087: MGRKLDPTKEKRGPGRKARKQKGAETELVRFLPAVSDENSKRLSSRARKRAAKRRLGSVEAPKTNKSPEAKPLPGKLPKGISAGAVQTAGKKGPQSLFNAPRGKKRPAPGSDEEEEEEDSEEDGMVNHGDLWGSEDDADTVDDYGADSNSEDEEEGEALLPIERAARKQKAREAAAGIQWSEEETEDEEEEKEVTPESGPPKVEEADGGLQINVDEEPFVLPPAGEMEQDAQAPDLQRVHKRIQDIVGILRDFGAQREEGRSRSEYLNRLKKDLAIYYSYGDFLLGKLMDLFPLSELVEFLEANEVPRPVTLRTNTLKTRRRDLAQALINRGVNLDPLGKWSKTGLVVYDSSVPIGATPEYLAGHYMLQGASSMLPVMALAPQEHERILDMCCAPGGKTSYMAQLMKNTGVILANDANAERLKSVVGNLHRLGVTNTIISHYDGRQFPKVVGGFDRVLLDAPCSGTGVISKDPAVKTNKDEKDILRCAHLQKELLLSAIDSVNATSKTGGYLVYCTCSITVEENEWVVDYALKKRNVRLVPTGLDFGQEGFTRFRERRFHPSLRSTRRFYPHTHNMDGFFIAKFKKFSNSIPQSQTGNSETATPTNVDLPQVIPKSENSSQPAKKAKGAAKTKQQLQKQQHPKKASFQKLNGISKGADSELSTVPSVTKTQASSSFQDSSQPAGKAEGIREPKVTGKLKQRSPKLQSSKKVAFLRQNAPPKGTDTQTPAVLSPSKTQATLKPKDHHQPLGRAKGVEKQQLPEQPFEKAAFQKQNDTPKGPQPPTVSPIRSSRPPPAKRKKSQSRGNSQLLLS
UniProt Q16656: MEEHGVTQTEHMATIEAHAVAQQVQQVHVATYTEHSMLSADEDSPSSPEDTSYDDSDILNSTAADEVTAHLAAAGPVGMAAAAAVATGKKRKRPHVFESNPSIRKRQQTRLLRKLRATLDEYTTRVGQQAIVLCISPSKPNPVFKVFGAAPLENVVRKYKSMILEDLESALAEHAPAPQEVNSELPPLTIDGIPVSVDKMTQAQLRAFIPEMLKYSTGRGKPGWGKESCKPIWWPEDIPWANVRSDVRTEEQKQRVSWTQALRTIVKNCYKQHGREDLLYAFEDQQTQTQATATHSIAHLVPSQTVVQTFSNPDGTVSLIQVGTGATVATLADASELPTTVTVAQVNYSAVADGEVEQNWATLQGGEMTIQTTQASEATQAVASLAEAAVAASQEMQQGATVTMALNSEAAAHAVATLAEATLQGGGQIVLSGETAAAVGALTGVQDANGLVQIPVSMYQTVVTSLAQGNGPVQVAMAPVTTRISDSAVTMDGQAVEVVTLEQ
UniProt P49116: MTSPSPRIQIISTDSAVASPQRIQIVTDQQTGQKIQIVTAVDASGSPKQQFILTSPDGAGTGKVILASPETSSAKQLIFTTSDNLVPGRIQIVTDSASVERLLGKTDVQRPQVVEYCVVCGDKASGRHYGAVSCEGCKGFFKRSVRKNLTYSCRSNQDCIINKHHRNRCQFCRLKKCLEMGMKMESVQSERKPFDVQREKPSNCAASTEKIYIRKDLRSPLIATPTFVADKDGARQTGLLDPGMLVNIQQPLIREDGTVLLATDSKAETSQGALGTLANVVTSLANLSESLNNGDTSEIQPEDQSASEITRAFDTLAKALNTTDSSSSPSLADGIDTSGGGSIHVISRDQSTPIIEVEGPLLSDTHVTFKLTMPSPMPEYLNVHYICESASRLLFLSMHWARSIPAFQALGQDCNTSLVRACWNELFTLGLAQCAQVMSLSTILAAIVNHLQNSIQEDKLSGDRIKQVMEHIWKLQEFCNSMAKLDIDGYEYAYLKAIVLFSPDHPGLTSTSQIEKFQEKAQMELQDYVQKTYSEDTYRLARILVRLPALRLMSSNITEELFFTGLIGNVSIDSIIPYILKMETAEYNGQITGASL
UniProt Q8N5F7: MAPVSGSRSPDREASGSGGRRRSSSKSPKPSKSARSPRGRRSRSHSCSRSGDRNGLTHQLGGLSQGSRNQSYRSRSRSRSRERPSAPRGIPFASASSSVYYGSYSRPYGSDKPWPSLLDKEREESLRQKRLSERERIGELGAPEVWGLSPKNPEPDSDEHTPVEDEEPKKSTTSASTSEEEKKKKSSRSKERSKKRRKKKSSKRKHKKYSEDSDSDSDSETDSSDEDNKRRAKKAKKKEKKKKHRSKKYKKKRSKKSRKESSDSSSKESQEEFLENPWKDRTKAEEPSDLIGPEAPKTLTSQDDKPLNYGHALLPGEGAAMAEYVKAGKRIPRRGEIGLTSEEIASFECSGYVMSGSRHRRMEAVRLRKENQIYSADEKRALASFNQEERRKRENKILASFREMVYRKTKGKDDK
UniProt O60361, whole entry, looked up: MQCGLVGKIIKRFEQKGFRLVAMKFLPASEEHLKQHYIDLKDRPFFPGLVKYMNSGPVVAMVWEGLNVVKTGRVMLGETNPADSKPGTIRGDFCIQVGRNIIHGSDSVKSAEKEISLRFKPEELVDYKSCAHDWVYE
UniProt Q7RTP0: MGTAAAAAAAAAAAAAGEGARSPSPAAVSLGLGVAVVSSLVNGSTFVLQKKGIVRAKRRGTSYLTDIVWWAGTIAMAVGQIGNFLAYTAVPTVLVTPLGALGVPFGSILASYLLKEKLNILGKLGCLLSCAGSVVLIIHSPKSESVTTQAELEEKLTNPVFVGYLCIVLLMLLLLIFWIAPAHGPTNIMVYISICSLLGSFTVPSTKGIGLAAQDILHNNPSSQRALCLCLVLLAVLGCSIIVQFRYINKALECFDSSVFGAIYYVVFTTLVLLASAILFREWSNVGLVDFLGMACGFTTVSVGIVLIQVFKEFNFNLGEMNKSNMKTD
UniProt Q16621: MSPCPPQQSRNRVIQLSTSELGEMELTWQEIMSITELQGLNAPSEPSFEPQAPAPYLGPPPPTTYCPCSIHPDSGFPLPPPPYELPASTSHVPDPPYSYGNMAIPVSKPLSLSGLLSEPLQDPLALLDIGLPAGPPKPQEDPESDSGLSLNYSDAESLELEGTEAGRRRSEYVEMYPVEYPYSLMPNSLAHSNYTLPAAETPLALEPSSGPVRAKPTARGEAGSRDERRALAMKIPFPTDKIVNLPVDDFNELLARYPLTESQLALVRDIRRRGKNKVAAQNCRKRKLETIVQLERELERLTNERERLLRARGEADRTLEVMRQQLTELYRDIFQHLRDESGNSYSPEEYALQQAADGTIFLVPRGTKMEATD
UniProt Q9NPE2: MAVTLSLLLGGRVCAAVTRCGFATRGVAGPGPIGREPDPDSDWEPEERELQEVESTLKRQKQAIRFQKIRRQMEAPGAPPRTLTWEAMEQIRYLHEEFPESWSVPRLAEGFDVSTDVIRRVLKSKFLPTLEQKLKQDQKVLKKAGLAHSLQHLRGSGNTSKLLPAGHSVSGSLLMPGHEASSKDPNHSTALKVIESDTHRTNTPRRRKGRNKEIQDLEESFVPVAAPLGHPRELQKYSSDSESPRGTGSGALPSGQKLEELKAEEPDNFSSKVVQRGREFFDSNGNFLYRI
UniProt P25208: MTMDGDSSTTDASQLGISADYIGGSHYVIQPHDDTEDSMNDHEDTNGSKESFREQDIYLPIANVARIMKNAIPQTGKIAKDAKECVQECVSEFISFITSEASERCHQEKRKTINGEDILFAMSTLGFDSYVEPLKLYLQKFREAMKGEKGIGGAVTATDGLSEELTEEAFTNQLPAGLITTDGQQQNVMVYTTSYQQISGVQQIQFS
UniProt O75607: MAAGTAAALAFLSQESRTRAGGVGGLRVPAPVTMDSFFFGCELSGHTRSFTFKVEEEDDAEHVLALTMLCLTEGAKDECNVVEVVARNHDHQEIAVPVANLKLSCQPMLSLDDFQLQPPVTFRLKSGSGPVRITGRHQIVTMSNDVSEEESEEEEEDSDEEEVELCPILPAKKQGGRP
UniProt Q13952: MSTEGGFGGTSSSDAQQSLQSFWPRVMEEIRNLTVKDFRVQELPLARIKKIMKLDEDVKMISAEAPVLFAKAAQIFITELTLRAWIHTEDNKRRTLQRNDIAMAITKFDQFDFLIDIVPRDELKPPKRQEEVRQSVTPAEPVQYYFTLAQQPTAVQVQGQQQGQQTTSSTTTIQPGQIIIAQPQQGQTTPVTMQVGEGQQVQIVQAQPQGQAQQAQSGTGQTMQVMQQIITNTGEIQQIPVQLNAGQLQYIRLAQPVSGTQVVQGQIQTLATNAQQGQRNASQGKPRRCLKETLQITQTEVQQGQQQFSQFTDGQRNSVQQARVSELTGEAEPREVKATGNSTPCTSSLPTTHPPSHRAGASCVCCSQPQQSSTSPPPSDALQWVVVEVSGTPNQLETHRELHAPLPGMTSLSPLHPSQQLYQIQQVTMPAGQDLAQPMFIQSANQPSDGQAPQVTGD
UniProt P48645: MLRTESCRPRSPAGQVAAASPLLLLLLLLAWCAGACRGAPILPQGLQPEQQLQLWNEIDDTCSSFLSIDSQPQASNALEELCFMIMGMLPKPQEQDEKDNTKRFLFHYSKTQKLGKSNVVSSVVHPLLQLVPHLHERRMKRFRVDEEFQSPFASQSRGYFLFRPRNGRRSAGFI
UniProt P40261: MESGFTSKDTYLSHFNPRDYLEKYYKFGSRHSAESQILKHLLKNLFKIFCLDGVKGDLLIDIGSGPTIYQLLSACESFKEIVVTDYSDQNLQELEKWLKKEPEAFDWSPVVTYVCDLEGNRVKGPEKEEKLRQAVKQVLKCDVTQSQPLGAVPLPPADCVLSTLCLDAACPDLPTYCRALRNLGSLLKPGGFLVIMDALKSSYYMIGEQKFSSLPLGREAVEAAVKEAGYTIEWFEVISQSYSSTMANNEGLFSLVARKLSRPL
UniProt Q8IXM6: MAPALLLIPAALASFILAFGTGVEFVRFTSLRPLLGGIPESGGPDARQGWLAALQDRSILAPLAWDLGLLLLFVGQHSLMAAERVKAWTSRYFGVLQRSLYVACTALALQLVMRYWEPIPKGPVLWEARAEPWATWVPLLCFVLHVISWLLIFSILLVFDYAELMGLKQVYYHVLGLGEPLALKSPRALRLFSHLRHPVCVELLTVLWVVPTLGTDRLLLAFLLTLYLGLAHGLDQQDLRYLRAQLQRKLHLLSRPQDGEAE
UniProt Q86YC3: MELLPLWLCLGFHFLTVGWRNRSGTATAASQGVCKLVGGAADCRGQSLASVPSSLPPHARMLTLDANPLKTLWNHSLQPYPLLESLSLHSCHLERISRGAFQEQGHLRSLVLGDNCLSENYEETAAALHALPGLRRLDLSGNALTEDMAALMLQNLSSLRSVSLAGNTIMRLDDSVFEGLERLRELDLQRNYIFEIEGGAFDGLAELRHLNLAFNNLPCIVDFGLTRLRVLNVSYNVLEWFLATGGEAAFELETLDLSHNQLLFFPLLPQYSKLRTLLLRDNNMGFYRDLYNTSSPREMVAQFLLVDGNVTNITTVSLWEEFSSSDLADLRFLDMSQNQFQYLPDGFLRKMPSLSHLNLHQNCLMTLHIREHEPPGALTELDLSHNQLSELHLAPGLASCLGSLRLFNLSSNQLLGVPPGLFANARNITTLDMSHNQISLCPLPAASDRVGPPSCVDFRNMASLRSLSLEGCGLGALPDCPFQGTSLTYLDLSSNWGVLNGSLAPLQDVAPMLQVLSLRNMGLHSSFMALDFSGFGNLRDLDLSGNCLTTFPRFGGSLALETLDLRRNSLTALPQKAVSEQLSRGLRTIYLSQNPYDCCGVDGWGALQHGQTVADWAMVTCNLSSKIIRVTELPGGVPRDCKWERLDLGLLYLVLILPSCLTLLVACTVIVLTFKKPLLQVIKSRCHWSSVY
UniProt Q8IVI9: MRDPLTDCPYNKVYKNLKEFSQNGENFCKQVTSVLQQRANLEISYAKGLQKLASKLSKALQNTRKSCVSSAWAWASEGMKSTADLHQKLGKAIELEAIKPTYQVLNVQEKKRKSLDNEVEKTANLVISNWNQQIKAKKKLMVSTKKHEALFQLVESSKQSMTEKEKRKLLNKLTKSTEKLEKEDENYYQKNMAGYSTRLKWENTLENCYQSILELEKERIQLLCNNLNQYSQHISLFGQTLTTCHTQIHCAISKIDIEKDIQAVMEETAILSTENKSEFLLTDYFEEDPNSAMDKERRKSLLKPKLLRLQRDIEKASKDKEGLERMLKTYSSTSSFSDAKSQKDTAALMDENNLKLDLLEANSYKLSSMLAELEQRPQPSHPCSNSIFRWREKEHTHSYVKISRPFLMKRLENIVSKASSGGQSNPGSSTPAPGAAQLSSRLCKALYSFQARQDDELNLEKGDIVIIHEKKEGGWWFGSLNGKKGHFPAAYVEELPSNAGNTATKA

Key:
Assay in all cases: log2 fold change, soluble protein after heating vs DMSO (PISA); higher = thermal stabilisation; K562 cells, 10 uM, 30 min; active = over 0.2 and 3.5 SD of the protein, either way, in both replicates (recomputed)
erlotinib = compound: C#Cc1cccc(Nc2ncnc3cc(OCCOC)c(OCCOC)cc23)c1 [erlotinib]
Method in brief: (§1)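 K562 cells at 2×10^6 cells/mL were treated with 10 μM compound for 30 min. Aliquots were heated for 3 min across 48°C-58°C, pooled, and extracted in PBS with 0.5% NP-40 at 4°C; soluble protein was the supernatant after 21,000xg for 90 min. Soluble protein was quantified by TMTpro 16plex LC-MS/MS with channel sums equalised, and reported as log2 fold change in thermal stability against DMSO controls, with values from duplicates.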

[1] = compound: C/C(=N\NC(=O)C1=CC(=CC=C1)S(=O)(=O)N2CCOCC2)/C3=C(C=CC(=C3)Cl)O
Method in brief: as §1

[2] = compound: C1=CC(=C(C=C1Cl)C2=NC3=NC=CN=C3C(=N2)NC4=CC=NC=C4)F
Method in brief: as §1

[3] = compound: C1=CC(=CC=C1C2=NC3=C(N2)C=C(C=C3)C(=O)N)OC4=CC=C(C=C4)Cl
Method in brief: as §1

[4] = compound: C1=CC2=C(C=CC(=C2)/C=C\3/C(=O)NC(=NCC4=CC=CS4)S3)N=C1
Method in brief: as §1

[5] = compound: C1=CC2=NC=CN=C2C=C1/C=C/3\C(=O)NC(=O)S3
Method in brief: as §1

[6] = compound: C1=CC=C(C=C1)C2=NC(=C(N2)C3=CC=NC=C3)C4=CC(=C(C=C4)Cl)O
Method in brief: as §1

[7] = compound: C1=CC=C2C(=C1)C3=NNC4=CC=CC(=C43)C2=O
Method in brief: as §1

[8] = compound: C1CCN(C1)C(=O)NC2=CC=CC(=C2)NC3=NC=C(C(=N3)NCCC4=CN=CN4)Br
Method in brief: as §1

[9] = compound: C1CN(CCC1(CC2=CC=C(C=C2)Cl)N)C3=NC=NC4=C3C=CN4
Method in brief: as §1

IRAK-1-4 Inhibitor I = compound: C1COCCN1CCN2C3=CC=CC=C3N=C2NC(=O)C4=CC(=CC=C4)[N+](=O)[O-] [IRAK-1-4 Inhibitor I]
Method in brief: as §1

ibrutinib = compound: C=CC(=O)N1CCC[C@@H](n2nc(-c3ccc(Oc4ccccc4)cc3)c3c(N)ncnc32)C1 [ibrutinib]
Method in brief: as §1

[10] = compound: CC(=O)c1cnc2ccc(-c3cc(Cl)c(O)c(Cl)c3)nc2c1N[C@H]1CC[C@H](CN(C)C)CC1
Method in brief: as §1

ralimetinib = compound: CC(C)(C)Cn1c(N)nc2ccc(-c3[nH]c(C(C)(C)C)nc3-c3ccc(F)cc3)nc21 [ralimetinib]
Method in brief: as §1

[11] = compound: CC(C)(O)CC(=O)NCCn1ccc2ncnc(Nc3ccc(Oc4cccc(C(F)(F)F)c4)c(Cl)c3)c21
Method in brief: as §1

[12] = compound: CC(C)C1=C2N=C(C=C(N2N=C1)NCC3=CC=CC=C3)NCCCCCCN
Method in brief: as §1

[13] = compound: CC(C)C[C@@H](C=O)NC(=O)[C@H](CC(C)C)NC(=O)[C@H](CC(C)C)NC(=O)OCc1ccccc1
Method in brief: as §1

pinometostat = compound: CC(C)N(C[C@H]1O[C@@H](n2cnc3c(N)ncnc32)[C@H](O)[C@@H]1O)[C@H]1C[C@@H](CCc2nc3cc(C(C)(C)C)ccc3[nH]2)C1 [pinometostat]
Method in brief: as §1

[14] = compound: CC1=C(C2=C(C=C1)C(=O)C3=CC=CC=C3N2CCCN)C
Method in brief: as §1

[15] = compound: CC1=C(C(CC(=O)N1)C2=CC=C(C=C2)C(F)(F)F)C(=O)NC3=C(C=C4C(=C3)C=NN4)F
Method in brief: as §1

Target	log2 fold change (erlotinib)	log2 fold change [1]	log2 fold change [2]	log2 fold change [3]	log2 fold change [4]	log2 fold change [5]	log2 fold change [6]	log2 fold change [7]	log2 fold change [8]	log2 fold change [9]	log2 fold change (IRAK-1-4 Inhibitor I)	log2 fold change (ibrutinib)	log2 fold change [10]	log2 fold change (ralimetinib)	log2 fold change [11]	log2 fold change [12]	log2 fold change [13]	log2 fold change (pinometostat)	log2 fold change [14]	log2 fold change [15]
NOP2 isoform 4 (UniProt P46087)	inactive: -0.17	inactive: -0.261	inactive: -0.349	inactive: -0.064	inactive: -0.045	inactive: 0.272	inactive: -0.255	inactive: 0.078	inactive: 0.023	inactive: 0.006	inactive: -0.111	inactive: -0.278	inactive: 0.308	inactive: 0.205	inactive: 0.163	inactive: 0.241	inactive: 0.194	inactive: 0.325	inactive: -0.474	–
NRF1 isoform 4 (UniProt Q16656)	inactive: 0.079	inactive: 0.012	inactive: -0.161	inactive: -0.028	inactive: 0.053	inactive: -0.001	inactive: -0.012	inactive: -0.116	inactive: -0.051	inactive: -0.003	inactive: -0.014	inactive: -0.007	inactive: -0.059	inactive: 0.024	inactive: 0.082	inactive: -0.125	inactive: -0.025	inactive: -0.004	active: -0.419	–
NR2C2 isoform 2 (UniProt P49116)	inactive: -0.001	inactive: -0.067	inactive: -0.011	inactive: 0.006	inactive: 0.019	inactive: -0.039	inactive: -0.003	inactive: -0.091	inactive: 0.074	inactive: 0.007	inactive: 0.004	inactive: 0.022	inactive: -0.062	inactive: -0.064	inactive: -0.048	inactive: -0.004	inactive: 0.058	inactive: 0.014	inactive: -0.215	–
NKAP (UniProt Q8N5F7)	inactive: 0.029	inactive: 0.023	inactive: -0.041	inactive: 0.041	inactive: -0.189	inactive: -0.047	inactive: -0.085	inactive: -0.051	inactive: -0.064	inactive: -0.007	inactive: 0	inactive: 0.004	inactive: -0.218	inactive: 0.033	inactive: 0.105	inactive: -0.123	inactive: 0.103	inactive: 0.032	inactive: -0.022	–
NME2P1 (UniProt O60361)	inactive: 0.147	inactive: 0.012	inactive: 0.147	inactive: 0.03	inactive: 0.04	inactive: 0.137	inactive: -0.163	inactive: 0.026	inactive: 0.076	inactive: 0.078	inactive: -0.019	inactive: -0.18	inactive: -0.033	inactive: 0.032	inactive: -0.024	inactive: -0.072	inactive: -0.135	inactive: 0.037	inactive: 0.031	–
NIPA1 (UniProt Q7RTP0)	inactive: 0.084	inactive: 0.114	–	inactive: -0.001	inactive: -0.006	inactive: -0.004	inactive: -0.008	inactive: -0.076	inactive: -0.005	inactive: 0.191	inactive: 0.109	inactive: 0.084	inactive: -0.04	inactive: -0.03	–	inactive: 0.021	inactive: -0.102	inactive: -0.156	inactive: -0.045	inactive: 0.044
NFE2 (UniProt Q16621)	inactive: 0.009	inactive: 0.005	inactive: -0.025	inactive: -0.001	inactive: -0.002	inactive: 0.158	inactive: -0.012	inactive: -0.009	inactive: -0.02	inactive: -0.019	inactive: 0.053	inactive: -0.039	inactive: 0.016	inactive: -0.06	inactive: 0.01	inactive: -0.119	inactive: 0.184	inactive: -0.001	active: -0.285	–
NGRN (UniProt Q9NPE2)	inactive: -0.008	inactive: -0.089	inactive: -0.046	inactive: 0.033	inactive: 0.025	inactive: -0.005	–	inactive: -0.141	inactive: -0.024	inactive: -0.068	–	inactive: 0.037	inactive: -0.155	–	inactive: 0	inactive: -0.112	–	–	inactive: 0.163	inactive: -0.083
NFYB (UniProt P25208)	inactive: 0.092	inactive: -0.102	–	inactive: -0.153	inactive: -0.047	inactive: 0.064	inactive: -0.036	inactive: -0.045	inactive: 0.01	inactive: -0.069	inactive: 0.07	inactive: -0.051	inactive: 0.019	inactive: 0.016	–	inactive: 0.054	inactive: -0.007	inactive: -0.043	active: 0.411	–
NPM3 (UniProt O75607)	inactive: -0.083	inactive: -0.104	–	inactive: 0.02	inactive: -0.184	inactive: 0.04	inactive: -0.025	inactive: -0.022	inactive: -0.054	inactive: -0.087	inactive: -0.057	inactive: -0.016	inactive: -0.004	inactive: 0.045	–	inactive: 0.078	inactive: 0.053	inactive: 0.052	active: -0.521	–
NOTCH2 (UniProt Q04721)	inactive: 0.262	inactive: -0.106	–	inactive: 0.495	inactive: 0.17	inactive: -0.179	–	inactive: -0.176	inactive: 0.092	inactive: -0.076	–	inactive: -0.27	inactive: -0.114	–	–	inactive: -0.336	–	–	inactive: 0.046	–
NOC2L (UniProt Q9Y3T9)	inactive: -0.008	inactive: 0.022	inactive: -0.066	inactive: -0.064	inactive: 0.063	inactive: 0.044	–	inactive: -0.07	inactive: -0.015	inactive: 0.034	inactive: -0.017	inactive: -0.045	inactive: -0.173	–	inactive: -0.105	inactive: -0.151	–	inactive: 0.063	inactive: -0.157	inactive: -0.156
NFYC (UniProt Q13952)	inactive: 0.014	inactive: 0.004	inactive: 0.016	inactive: -0.006	inactive: 0.059	inactive: 0.007	inactive: 0.007	inactive: 0.01	inactive: -0.034	inactive: -0.042	inactive: -0.023	inactive: -0.042	inactive: -0.023	inactive: -0.09	inactive: -0.046	inactive: 0.019	inactive: -0.061	inactive: -0.087	active: 0.332	–
NMU (UniProt P48645)	inactive: -0.003	inactive: 0.072	inactive: -0.02	inactive: 0.063	inactive: -0.123	inactive: 0.094	inactive: -0.129	inactive: -0.018	inactive: 0.025	inactive: 0.133	inactive: -0.052	inactive: 0.027	inactive: 0.034	inactive: 0.063	inactive: 0.011	inactive: 0.123	inactive: 0.313	inactive: -0.106	inactive: -0.174	–
NIPBL (UniProt Q6KC79)	inactive: 0.207	inactive: -0.061	inactive: -0.088	inactive: -0.065	inactive: 0.138	inactive: 0.033	–	inactive: -0.057	inactive: -0.154	inactive: -0.091	inactive: 0.016	inactive: -0.229	inactive: 0.158	–	inactive: 0.091	inactive: -0.291	–	inactive: 0.108	inactive: 0.166	–
NNMT (UniProt P40261)	inactive: 0.037	inactive: 0.062	inactive: 0.123	inactive: 0.021	inactive: 0.074	inactive: 0	–	inactive: 0.028	inactive: 0.045	inactive: 0.043	inactive: 0.035	inactive: 0.06	inactive: -0.028	–	inactive: -0.026	inactive: -0.026	–	active: 0.276	inactive: -0.006	–
NRM (UniProt Q8IXM6)	inactive: 0.037	inactive: 0.004	inactive: 0.01	inactive: 0.026	inactive: 0.015	inactive: 0.083	–	inactive: 0.038	inactive: -0.252	inactive: 0.01	–	inactive: 0.059	inactive: -0.005	–	inactive: -0.143	inactive: -0.193	–	–	inactive: 0.136	inactive: -0.005
NSD1 (UniProt Q96L73)	inactive: 0.022	inactive: -0.154	–	inactive: 0.022	inactive: -0.178	inactive: 0	–	inactive: -0.032	–	–	inactive: 0.014	inactive: -0.029	inactive: 0.088	–	–	inactive: -0.071	–	inactive: -0.029	–	inactive: 0.003
NRROS (UniProt Q86YC3)	–	–	–	–	–	–	–	–	–	–	–	–	–	–	–	–	–	–	–	inactive: -0.367
NOSTRIN isoform 4 (UniProt Q8IVI9)	inactive: -0.05	inactive: 0.002	–	inactive: -0.07	inactive: 0.178	–	inactive: 0.186	inactive: -0.214	–	–	–	–	inactive: 0.106	inactive: 0.286	–	inactive: -0.486	inactive: 0.456	–	–	inactive: -0.094

Whole records from above. Values in the order: log2 fold change (erlotinib)	log2 fold change [1]	log2 fold change [2]	log2 fold change [3]	log2 fold change [4]	log2 fold change [5]	log2 fold change [6]	log2 fold change [7]	log2 fold change [8]	log2 fold change [9]	log2 fold change (IRAK-1-4 Inhibitor I)	log2 fold change (ibrutinib)	log2 fold change [10]	log2 fold change (ralimetinib)	log2 fold change [11]	log2 fold change [12]	log2 fold change [13]	log2 fold change (pinometostat)	log2 fold change [14]	log2 fold change [15]
NFYB (UniProt P25208) reads inactive: 0.092	inactive: -0.102	–	inactive: -0.153	inactive: -0.047	inactive: 0.064	inactive: -0.036	inactive: -0.045	inactive: 0.01	inactive: -0.069	inactive: 0.07	inactive: -0.051	inactive: 0.019	inactive: 0.016	–	inactive: 0.054	inactive: -0.007	inactive: -0.043	active: 0.411	–
NSD1 (UniProt Q96L73) reads inactive: 0.022	inactive: -0.154	–	inactive: 0.022	inactive: -0.178	inactive: 0	–	inactive: -0.032	–	–	inactive: 0.014	inactive: -0.029	inactive: 0.088	–	–	inactive: -0.071	–	inactive: -0.029	–	inactive: 0.003
